For part of these data: A negative result means that nothing was seen under these conditions. For at least one entry, the source does not settle the construct or the ends of the probe.
Tested on: Nova (KH-type RNA binding protein)
Assay: EMSA
Settings: 100 nM Nova, no shift; purified recombinant protein; label: 32P-UTP

Binding result, no binding:
GAGCGGCUGCGGUGUGGAAGGAGUGGCUGGGUUGCGCACCUUGGCUUC [sc1]

Tested on: FMRP (full length, iso7) (Homo sapiens)
Assay: filter binding
Settings: Li+ replacing K+ abrogates binding; purified recombinant protein; label: 32P-UTP

Binding result, no binding:
GAGCGGCUGCGGUGUGGAAGGAGUGGCUGGGUUGCGCACCUUGGCUUC [sc1]

Same assay, conditions: Li+ replacing K+; purified recombinant protein; label: 32P-UTP

Binding result, no binding:
GACGAGCGCAGGGAGGAGGAGCAGGAGAGGCAG [Mint coding site], UGUCUGGCAGAGGAAAGGGUGGAAAGGGU [Histone H4 coding site], GGGGGGUGAUUGGAAGGGAGGGAGGUG [Semaphorin 3F 3'UTR site], GGGGAGGCAGGAGGAGGCCGAGG [Guanine nucleotide exchange factor (KIAA0763) 3'UTR site], CCCUUCUAGGGGAGGCGGGUGGGGGAG [GT334/TMEM1/EHOC-1 site 1 3'UTR], UGGCUCGUUGGUUGGGGUGGGUGGCCA [Potassium channel Kv3.1 5'UTR site], GUUGGGUUGAGGGUGGGAAGGAAGGUAG [Arginine vasopressin receptor V1a 3'UTR site], UCGCGGCGCUGGGAGAGGGCGGAGGGGGAGGCGG [MAP1B 5'UTR site], GGCUACUUUGGGGAGGUGUGGGAAGGCCU [Srm tyrosine kinase coding site], AGAGCGUGGAGGUGUGGAAGGAGUGGCUGCUCU [ID3 3'UTR site]

Same assay, conditions: weaker than sc1; SEQ assignment by order; purified recombinant protein; label: 32P-UTP

Binding result, binds:
AAGGGUAGGAUGGGAUGG [sc2], AAGGUAGGGUGGUUGG [sc3], GAGGAGUUGGAAGGAUGGG [sc5], AAGGUAGGGUGGUUGG [sc6], GUGGGUGGUUGGGUGG [sc4]

Tested on: FMRP KH1/KH2 double Ile-to-Asn mutant (full length) I304N plus equivalent KH1 Ile to Asn (Homo sapiens)
Assay: filter binding
Settings: nearly as well as wild-type FMRP; purified recombinant protein; protein details: C-terminal His, baculovirus; label: 32P-UTP

Binding result, binds:
GAGCGGCUGCGGUGUGGAAGGAGUGGCUGGGUUGCGCACCUUGGCUUC [sc1]
